In patent publication US20040253728A1, “New method” (priority 2000, published 2004) one finds binding data, which are given here for 1 molecule.

Amino acid sequences for entries named in this document (tags omitted). A change or cut given only in a name is not applied to a line headed by its entry.
UniProt O00411: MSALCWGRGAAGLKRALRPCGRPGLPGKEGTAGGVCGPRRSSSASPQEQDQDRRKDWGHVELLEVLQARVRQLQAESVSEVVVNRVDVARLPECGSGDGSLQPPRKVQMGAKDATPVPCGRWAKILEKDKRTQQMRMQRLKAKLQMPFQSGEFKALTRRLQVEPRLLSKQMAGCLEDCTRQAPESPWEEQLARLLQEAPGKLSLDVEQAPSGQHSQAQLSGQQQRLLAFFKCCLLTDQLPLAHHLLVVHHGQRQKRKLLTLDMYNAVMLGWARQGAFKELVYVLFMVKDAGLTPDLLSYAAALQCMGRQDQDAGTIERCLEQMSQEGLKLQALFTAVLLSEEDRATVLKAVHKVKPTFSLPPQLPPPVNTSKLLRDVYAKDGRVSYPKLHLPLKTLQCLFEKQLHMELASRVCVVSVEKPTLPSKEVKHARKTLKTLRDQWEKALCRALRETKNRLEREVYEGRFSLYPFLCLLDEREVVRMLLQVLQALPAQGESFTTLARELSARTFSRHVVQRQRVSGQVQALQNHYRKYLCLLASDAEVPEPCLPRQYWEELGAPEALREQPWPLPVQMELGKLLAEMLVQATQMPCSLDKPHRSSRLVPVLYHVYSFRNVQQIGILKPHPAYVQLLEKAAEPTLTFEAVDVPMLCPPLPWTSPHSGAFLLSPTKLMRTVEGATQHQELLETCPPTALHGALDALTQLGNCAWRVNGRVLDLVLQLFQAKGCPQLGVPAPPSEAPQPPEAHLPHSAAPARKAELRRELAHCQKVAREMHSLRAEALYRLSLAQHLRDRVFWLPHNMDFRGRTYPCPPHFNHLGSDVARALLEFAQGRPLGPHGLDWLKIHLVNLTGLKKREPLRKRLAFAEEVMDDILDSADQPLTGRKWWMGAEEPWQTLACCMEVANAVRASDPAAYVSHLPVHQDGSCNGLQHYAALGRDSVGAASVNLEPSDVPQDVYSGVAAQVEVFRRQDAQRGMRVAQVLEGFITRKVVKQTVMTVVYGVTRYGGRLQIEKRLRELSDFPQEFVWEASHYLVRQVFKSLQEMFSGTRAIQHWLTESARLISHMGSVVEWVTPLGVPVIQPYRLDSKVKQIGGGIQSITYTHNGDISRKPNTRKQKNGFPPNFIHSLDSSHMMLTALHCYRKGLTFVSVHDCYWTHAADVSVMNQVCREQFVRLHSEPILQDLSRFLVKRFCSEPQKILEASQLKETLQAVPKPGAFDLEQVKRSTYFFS

Results are given in words; binding and its absence hold for the method and conditions named. Binding seen in cells or lysates may run through a third protein. Some results given as binding are weak or reduced against the parent protein; the word gives no strength.

The target in test [1] is His-tagged recombinant human mitochondrial RNA polymerase (mtRNAP) (human) (UniProt O00411). The test can be described thus: Ni2+-NTA co-purification after co-expression; composition of the purified complex.
Test [2] has the same target. Kind of test: co-purification on Ni2+-NTA through His-tagged mtRNAP after baculovirus co-expression, washes at 0.3 M NaCl.

B1: recombinant human TFB1M (CGI-75 protein) (protein)
chain: QAANELSQNFLLDLRLTDKIVRKAGNLTNAYVYEVGPGPGGITRSILNADVAELLVVEKDTRFIPGLQMLSDAAPGKLRIVHGDVLTFKVEKAFSESLKRPWEDDPPNVHIIGNLPFSVSTPLIIKWLENISCRDGPFVYGRTQMTLTFQKEVAERLAANTGSKQRSRLSVMAQYLCNVRHIFTIPGQAFVPKPEVDVGVVHFTPLIQPKIEQPFKLVEKVVQNVFQFRRKYCHRGLRMLFPEAQRLESTGRLLELADIDPTLRPRQLSISHFKSLCDVYRKMCDEDPQLFAYNFREELKRRKSKNEEKEEDDAENYRL
For B1, the binding entry in test [1] and in test [2] was “binds” in each case.
